Experimental data reported in PMC10216364, “Structural Insight into the Mechanism of σ32-Mediated Transcription Initiation of Bacterial RNA Polymerase” (Biomolecules, 2023).
No signal at the amounts used counts as a negative. Where a protein sequence is shown, tags need not be part of it.

Target: T1, sigma32 (RpoH) wild type (E. coli) (UniProt P0AGB3)
T1 sequence (looked up): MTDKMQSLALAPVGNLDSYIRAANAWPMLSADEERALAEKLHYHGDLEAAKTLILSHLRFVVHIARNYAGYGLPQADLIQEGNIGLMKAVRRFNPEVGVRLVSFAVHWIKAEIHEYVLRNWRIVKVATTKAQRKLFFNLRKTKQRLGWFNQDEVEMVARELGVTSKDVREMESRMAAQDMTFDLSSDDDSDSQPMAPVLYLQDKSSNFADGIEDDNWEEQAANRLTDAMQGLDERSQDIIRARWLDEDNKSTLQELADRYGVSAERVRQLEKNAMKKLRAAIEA
Assay: fluorescence polarization
Details: sigma32 alone, no core enzyme; FP: 10 mM Tris-HCl pH 7.7, 100 mM NaCl, 1 mM DTT, 1% glycerol, 0.025% Tween-20, 5 nM DNA, 10-320 nM holoenzyme, room temperature, 5 min; recombinant protein; residues 1-284; protein details: His tag (pET28a, Ni-NTA)

Question: Does “CCTTGAAGACGTGG (double strand) [short -35 element DNA]” bind?
Answer: Result: no binding
